This is an account of results in US6818407B2, “Anti-endotoxic antimicrobial cationic peptides and methods of use therfor” (priority 1998, dated 2004).

Ends that are not written are not given here.

This data set relates to variety of bacteria (Va, As, C621, C587, C610, K799, Z61). Description: Rank of peptides over the MIC results in Mueller Hinton Broth. To be noted: rank among the ten peptides, 1 = best. Type of data set: cell-based.

The substance “GWGSFFKKAAHVGKHVGKAALTHYL [Peptide P-0, reference compound]” yielded a Rank of 6.

Substance “KGWGSFFKKAAHVGKHVGKAALTHYL-NH2 [Peptide P-1-CN]” displayed a Rank of 1.

Take ALWKTMLKKAAHVGKHVGKAALGAAARRRK [DER-M]: the Rank came out at 7.

As for ALWKTMLKKAAHVGKHVGKAALTHYL-NH2 [P-DER], the Rank is listed as 3.

In turn, “RQRVEELSKFSKKGAAARRRK [Peptide M-0, reference compound]” returned a Rank of 10.

In turn, SIGSAFKKAAHVGKHVGKAALGAAARRRK [CER-M] returned a Rank of 9.

Substance GWGSFFKKAAHVGKHVGKAALGAAARRRK [P-M] gave a Rank of 5.

Take GWGSFFKKAAHVGKHVGKAALTHYL-NH2 [P-CN]: the Rank was 2.

Take “KGWGSFFKKAAHVGKHVGKAALTHYL [Peptide P-1]”: the Rank came out at 4.

On to SIGSAFKKAAHVGKHVGKAALTHYL-NH2 [P-CER], for which the Rank is 8.
